Experimental data: paper PMC5442318, “Hundreds of dual-stage antimalarial molecules discovered by a functional gametocyte screen” (Nature Communications, 2017)

System: HepG2 cells
Test: HepG2 cytotoxicity assay
Type: cell-based
Summary of the method: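 Steps: equilibrate plates and detection reagent at room temperature (30 min); dispense CellTiter-Glo; allow 10 min at room temperature; record luminescence.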

SMILES	Selectivity ratio (HepG2 TOX50 vs Pf FGAA IC50)	Selectivity ratio (HepG2 TOX50 / Pf FGAA IC50)
COc1cc(NCCCNCc2cn(Cc3cc(Br)cc(Br)c3)c3ccccc23)nc2ccccc12 [TCMDC-140677]	4.58	–
CC(C)(CN)c1nc(-c2ccc(Br)c(O)c2)c(-c2ccncc2)[nH]1.Cl [TCMDC-140680]	54.47	–
N=C(N)Nc1nc(-c2ccc(NCc3ccc(CNc4cccc(-c5csc(NC(=N)N)n5)c4)cc3)cc2)cs1 [TCMDC-140699]	5.34	–
CN1CCC=C(C(=O)NCC(C)(C)c2nc(-c3ccc(Cl)c(O)c3)c(-c3ccncc3)[nH]2)C1.Cl [TCMDC-140700]	6.98	–
CN(C)CCCOc1ccc(CN2CCC(c3c[nH]c4ccc(NCC5CCCCC5)cc34)CC2)cc1.O=C(O)C(F)(F)F [TCMDC-140737]	9.76	–
CCN(CC)CCN(Cc1ccc(-c2ccc(C(F)(F)F)cc2)cc1)C(=O)Cn1cc(Cc2cnn(C)c2)c(=O)nc1/C=C/c1ccc(F)cc1.O=C(O)C(O)C(O)C(=O)O [TCMDC-140741]	11.45	–
CN(C)CCOc1ccc(NC(=O)NC(C)(C)c2nc(-c3ccc(Cl)c(O)c3)c(-c3ccncc3)[nH]2)cc1.Cl [TCMDC-140744]	19.59	–
CNCC(C)(C)c1nc(-c2ccc(Cl)c(O)c2)c(-c2ccncc2)[nH]1.Cl [TCMDC-140762]	15.32	–
CC(C)(C)c1ccc(CNC(=O)/C=C/c2ccc(CNC3CCNCC3)cc2)cc1 [TCMDC-140773]	4.94	–
CC(C)(C)c1ccc(CNC(=O)c2cc(CNC3CCNCC3)ccc2O)cc1 [TCMDC-140775]	6.99	–
CC(C)(C)c1ccc(CNC(=O)c2ccc(CNC3CCC(N)CC3)s2)cc1 (centres unmarked) [TCMDC-140777]	3.67	–
CCN(CC)CCN(Cc1ccc(-c2ccc(C(F)(F)F)cc2)cc1)C(=O)Cn1cc(Cc2cnn(C)c2)c(=O)nc1/C=C/c1cccc(F)c1F [TCMDC-140964]	–	11.15
CC(C)(CNC(=O)[C@H]1CCCN1)c1nc(-c2ccc(Cl)c(O)c2)c(-c2ccncc2)[nH]1.Cl [TCMDC-141060]	–	27.10
CC(C)(CNC(=O)[C@@H]1CCCCN1)c1nc(-c2ccc(Cl)c(O)c2)c(-c2ccncc2)[nH]1.Cl [TCMDC-141079]	–	24.69
CC1(CCN2CCC(c3c[nH]c4cnccc34)CC2)CCCc2c(Br)cccc2C1=O.Cl (centres unmarked) [TCMDC-141171]	–	3.03
CC(C)(CN)c1cc(-c2ccc(Cl)c(O)c2)c(-c2ccncc2)o1.Cl [TCMDC-141334]	–	23.95
CN1CCN(c2ccc(Nc3ncc([N+](=O)[O-])c(Nc4ccccc4O)n3)cc2)CC1.O=C(O)C(F)(F)F [TCMDC-141372]	–	0.91
ON=C1CCc2cc(-c3cc(-c4ccc(OC5CCNCC5)cc4)oc3-c3ccncc3)ccc21 [TCMDC-141381]	–	25.16
O=C(CCC1CCCC1)N(Cc1ccc(-c2ccc(CNCCc3ccccc3)cc2)cc1)C1CCCNC1.O=C(O)C(F)(F)F (centres unmarked) [TCMDC-141444]	–	2.62
O=C(Nc1ccc(Cl)cc1)c1cc(Cl)cc2nc(C(F)(F)F)[nH]c12 [TCMDC-141586]	–	1.66
CN1CCCC1CCNc1ncc2c(-c3ccc(NC(=O)Nc4cc(C(F)(F)F)ccc4F)c(F)c3)nn(C)c2n1.O=C(O)C(F)(F)F (centres unmarked) [TCMDC-141610]	–	3.14
CN1CCN(CCCNc2ncc3c(-c4ccc(NC(=O)Nc5cc(C(F)(F)F)ccc5F)c(F)c4)nn(C)c3n2)CC1.O=C(O)C(F)(F)F [TCMDC-141611]	–	5.61
Cc1ccc(Cn2nc(Cl)c(N3CCCNCC3)cc2=O)cc1NC(=O)Nc1ccc(-c2ccccc2)cc1.O=C(O)C(F)(F)F [TCMDC-141697]	–	7.30
Cc1c(Cn2nc(Cl)c(N3CCNCC3)cc2=O)cccc1NC(=O)Nc1ccc(-c2ccccc2)cc1.O=C(O)C(F)(F)F [TCMDC-141699]	–	0.86
Cl.O=S(=O)(Nc1cc2c(cc1OCCCN1CCCCC1)CCNCC2)c1ccc(-c2ccc(Cl)cc2)cc1 [TCMDC-141753]	–	2.18
CN1CCc2cc(NS(=O)(=O)c3ccc(-c4ccc(Cl)cc4)cc3)c(OCCCN3CCCCC3)cc2CC1.Cl [TCMDC-141754]	–	2.30
